The exact form of at least one protein or probe is not confirmed.
System: PDGF
Test: binding assay
Details: 2.5 uM switch, 1 uM PDGF, folded or branched DNA

Sequence	binding result (capillary electrophoresis, 2.5 uM linker-streptavidin, larger shifted peak than without linker, no distinct shifted peak without PDGF, label: fluorescein (switch), biotin (linker), variant of PDGF-responsive DNA switch)	binding result (capillary electrophoresis mobility shift, room temperature, label: fluorescein)
CTTTTTATCGCCCGGGCACTGCAAGCAATTGCAGTCCCAATGGGCGGGCGATAAAAAGATCGATTCCCATCGATCTTTTTATCGCCC / GGGCGATAAAAAGATCGAT [PDGF switch with biotin linker complexed to streptavidin]	binds	–
CTTTTTATCGCCCGGGCACTGCAAGCAATTGCAGTCCCAATGGGCGGGCGATAAAAAGATCGATTCCCATCGATCTTTTTATCGCCC [PDGF-responsive DNA switch]	–	binds

From patent US20090082217
